# Several values for one entry are separate records, joined by “and”; a condition that tells them apart may be missing. Equal entries are not always repeated. This is one part of the list. For some of these results: The exact form of the protein is not confirmed.
# Tests used:
# Assay in all cases: protein microarray (ProtoArray v5.0), streptavidin-Alexa Fluor 647
# Conditions in all cases: 3'-biotin; 20 mM Tris (pH 7.5), 5 mM MgCl2, 100 mM KCl, 0.1% Tween-20, A/T-rich and random oligonucleotide blockers; temperature not stated; high values mean tight binding
# CYB5R3 (human) = tested on: CYB5R3 (human)
# CYB5R4 = molecular target: T1, CYB5R4 (UniProt Q7L1T6)
# T1 sequence: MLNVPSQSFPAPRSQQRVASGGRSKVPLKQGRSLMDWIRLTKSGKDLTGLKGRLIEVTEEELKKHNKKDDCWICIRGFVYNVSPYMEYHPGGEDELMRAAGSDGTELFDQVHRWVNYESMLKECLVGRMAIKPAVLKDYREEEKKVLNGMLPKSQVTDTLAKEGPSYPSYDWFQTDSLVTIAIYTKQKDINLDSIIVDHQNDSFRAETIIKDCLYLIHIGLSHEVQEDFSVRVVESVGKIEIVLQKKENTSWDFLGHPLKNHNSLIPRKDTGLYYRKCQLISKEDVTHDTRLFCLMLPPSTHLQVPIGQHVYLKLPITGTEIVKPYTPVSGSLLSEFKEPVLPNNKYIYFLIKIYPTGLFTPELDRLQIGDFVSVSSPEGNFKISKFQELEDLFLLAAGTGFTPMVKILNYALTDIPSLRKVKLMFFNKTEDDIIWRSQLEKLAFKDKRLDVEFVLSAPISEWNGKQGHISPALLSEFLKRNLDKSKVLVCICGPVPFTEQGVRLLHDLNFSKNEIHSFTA
# CYFIP2 (human) = tested on: CYFIP2 (human)
# CYP1A1 = molecular target: T2, CYP1A1 (UniProt P04798)
# T2 sequence: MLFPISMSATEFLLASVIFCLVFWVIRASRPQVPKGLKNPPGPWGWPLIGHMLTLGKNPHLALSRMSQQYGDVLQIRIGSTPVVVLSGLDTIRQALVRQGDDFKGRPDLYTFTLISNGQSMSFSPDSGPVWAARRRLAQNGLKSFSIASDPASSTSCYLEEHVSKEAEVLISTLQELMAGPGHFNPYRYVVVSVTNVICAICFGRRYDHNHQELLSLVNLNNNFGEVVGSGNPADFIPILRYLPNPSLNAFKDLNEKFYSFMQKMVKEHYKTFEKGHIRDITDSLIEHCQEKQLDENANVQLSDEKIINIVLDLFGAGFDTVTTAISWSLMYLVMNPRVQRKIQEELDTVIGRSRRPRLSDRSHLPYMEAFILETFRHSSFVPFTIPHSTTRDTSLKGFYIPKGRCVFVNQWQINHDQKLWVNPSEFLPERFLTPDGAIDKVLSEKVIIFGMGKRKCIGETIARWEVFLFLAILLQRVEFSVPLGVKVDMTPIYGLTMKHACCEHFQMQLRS
# CYP20A1 (human) = tested on: CYP20A1 (human)
# CYP26A1 (human) = tested on: CYP26A1 (human)
# CYP26B1 (human) = tested on: CYP26B1 (human)
# CYP27A1 (human) = tested on: CYP27A1 (human)
# CYP4F11 (human) = tested on: CYP4F11 (human)
# CYTL1 (human) = tested on: CYTL1 (human)
sequence,measurement,setting,value
GGGAGGCTGAGGCAGG [G4-1 biotinylated (PQS2)],binding signal,CYB5R3 (human),-0.331 z-score
same,binding signal,CYB5R4,-0.324 z-score
same,binding signal,CYFIP2 (human),-0.363 z-score
same,binding signal,CYP1A1,-0.313 z-score
same,binding signal,CYP20A1 (human),-0.335 z-score and -0.332 z-score
same,binding signal,CYP26A1 (human),-0.276 z-score
same,binding signal,CYP26B1 (human),-0.301 z-score
same,binding signal,CYP27A1 (human),-0.308 z-score
same,binding signal,CYP4F11 (human),-0.317 z-score
same,binding signal,CYTL1 (human),-0.334 z-score

# Quoted at random: 2 entries already listed, in no set order.
sequence,measurement,setting,value
GGGAGGCTGAGGCAGG [G4-1 biotinylated (PQS2)],binding signal,CYP26B1 (human),-0.301 z-score
same,binding signal,CYP26A1 (human),-0.276 z-score

# — publication PMC5996148
